The record followed here is patent US20230277625A1.

Numbering of substitutions follows the chain as printed. These are yes or no findings as the source states them, for the method shown. Some results given as binding are weak or reduced against the parent protein; the word gives no strength.

The chains are these.
T1: Mouse IL-18Rα ectodomain (amino acids 19-329), biotinylated (mouse) (UniProt Q61098)
T1 sequence (chain, biotin on the AviTag (BirA ligase)): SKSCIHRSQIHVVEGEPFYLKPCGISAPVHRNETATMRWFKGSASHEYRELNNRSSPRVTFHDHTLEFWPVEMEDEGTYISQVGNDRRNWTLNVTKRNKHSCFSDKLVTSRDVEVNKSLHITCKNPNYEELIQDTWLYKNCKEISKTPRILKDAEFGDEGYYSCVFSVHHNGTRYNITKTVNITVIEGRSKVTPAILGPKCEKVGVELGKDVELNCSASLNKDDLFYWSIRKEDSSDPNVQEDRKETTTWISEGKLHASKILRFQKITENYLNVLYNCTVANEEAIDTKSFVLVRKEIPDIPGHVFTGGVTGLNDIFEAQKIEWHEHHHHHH

T2: Mouse IL-18BP (amino acids 31-194), biotinylated (mouse) (UniProt Q9Z0M9)
T2 sequence (chain, biotin on the AviTag (BirA ligase)): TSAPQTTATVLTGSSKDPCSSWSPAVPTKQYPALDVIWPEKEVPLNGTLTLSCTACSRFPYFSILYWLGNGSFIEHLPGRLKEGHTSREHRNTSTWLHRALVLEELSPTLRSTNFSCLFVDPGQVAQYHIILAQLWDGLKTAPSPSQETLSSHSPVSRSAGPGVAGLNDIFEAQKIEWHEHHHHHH

B1: Mouse Interleukin-18 (mature form), wild type (ligand)
chain: NFGRLHCTTAVIRNINDQVLFVDKRQPVFEDMTDIDQSASEPQTRLIIYMYKDSEVRGLAVTLSVKDSKMSTLSCKNKIISFEEMDPPENIDDIQSDLIFFQKRVPGHNKMEFESSLYEGHFLACQKEDDAFKLILKKKDENGDKSVMFTLTNLHQS
B2: SEQ ID NO: 64 (murine DR-IL-18 variant mE8) (ligand)
chain: B1 chain with M50V, K52T, S54G, E55R, V56R, L59K, R104K, N109D
B3: SEQ ID NO: 61 (murine DR-IL-18 variant mCS2) (ligand)
chain: B1 chain with N1H, M50A, K52G, E55R, V56A, L59K
B4: SEQ ID NO: 62 (murine DR-IL-18 variant mC1) (ligand)
chain: B1 chain with M50A, K52V, S54R, E55R, V56L, L59K, R104K
B5: SEQ ID NO: 67 (murine DR-IL-18 variant mB1) (ligand)
chain: B1 chain with N1H, M50G, K52A, E55D, V56A, G58A, L59K, R104S, L151V
B6: SEQ ID NO: 70 (murine DR-IL-18 variant mA7) (ligand)
chain: B1 chain with N1Y, M50A, K52G, S54N, E55R, L59K
B7: SEQ ID NO: 60 (murine DR-IL-18 variant mCS1) (ligand)
chain: B1 chain with M50G, K52A, E55R, L59K

One assay concerns the target T1, Mouse IL-18Rα ectodomain (amino acids 19-329), biotinylated (mouse). Nature of the assay: on-yeast binding isotherm (flow cytometry), FIG. 11A.
In the case of B1, the binding result was “binds”.

As to B2, the binding result was “binds”.

Consider B3, for which the binding result was “binds”.

Regarding B4, the binding entry is on record as “binds”.

For the molecule B5, the binding entry was “binds”.

In the case of B6, the binding result is given as “binds”.

Turning to B7, the binding entry is “binds”.

Another assay has the same target. Nature of the assay: yeast binding isotherms and SPR; members per FIG. 11A legend.
Turning to B2, the binding result is reported as “binds”.

For B3, the binding entry was “binds”.

In the case of B4, the binding entry is reported as “binds”.

Consider B5, for which the binding entry is recorded as “binds”.

With B6, the binding result is on record as “binds”.

On to B7, for which the binding entry was “binds”.

The target is the same in another assay. Nature of the assay: on-yeast binding isotherm (flow cytometry): yeast-displayed murine IL-18 variant titrated with mIL-18Rα, % max.
Turning to B1, the binding entry is recorded as “binds”.

With B2, the binding entry is recorded as “binds”.

With B3, the binding result is “binds”.

Turning to B4, the binding result is on record as “binds”.

On to B5, for which the binding result is on record as “binds”.

As for B6, the binding result was “binds”.

As for B7, the binding result is “binds”.

In the next assay the target is T2, Mouse IL-18BP (amino acids 31-194), biotinylated (mouse). The assay is described as follows: SPR (Biacore T100); SPR; no binding detected.
B2: the binding entry is “no binding (tested: 30 µM used for ratio calculations)”.

Another assay has the same target. The assay is described as follows: on-yeast binding isotherm (flow cytometry); on-yeast isotherm; no binding detected.
As to B2, the binding entry is listed as “no binding (tested: 10 µM used for ratio calculations)”.

For the next assay the target is unchanged. The assay is described as follows: on-yeast binding isotherm (flow cytometry): yeast-displayed murine IL-18 variant titrated with mIL-18BP, % max.
B1: the binding result is listed as “binds”.

As for B2, the binding result is on record as “no binding (tested: 10^-6 M)”.
